Measured values: US20160311910A1
Results are given in words; binding and its absence hold for the method and conditions named. Some entries that bind do so weakly or less than the wild type.

How the values were obtained:
[1] = biological target: T1, Thymic Stromal Lymphopoietin Receptor (TSLPR), human, on ALL cells (human) (UniProt Q9HC73); assay: flow cytometry on TSLPRhi ALL cells, hybridoma supernatant, goat anti-mouse-PE
T1 sequence (looked up): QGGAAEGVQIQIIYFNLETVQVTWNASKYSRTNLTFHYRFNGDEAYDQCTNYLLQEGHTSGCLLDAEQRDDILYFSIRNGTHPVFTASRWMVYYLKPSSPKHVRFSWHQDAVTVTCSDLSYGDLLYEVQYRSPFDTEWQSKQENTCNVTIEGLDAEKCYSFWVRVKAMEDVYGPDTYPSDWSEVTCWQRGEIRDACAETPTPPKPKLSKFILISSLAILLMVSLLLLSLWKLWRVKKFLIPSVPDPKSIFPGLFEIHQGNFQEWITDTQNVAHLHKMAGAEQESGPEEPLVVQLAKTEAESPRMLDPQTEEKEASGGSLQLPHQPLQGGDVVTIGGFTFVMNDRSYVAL

[2] = biological target: T1, Thymic Stromal Lymphopoietin Receptor (TSLPR), human, on ALL cells (human); assay: flow cytometry on ALL cells overexpressing TSLPR, PE-conjugated goat anti-mouse antibody

B1: 3G11 anti-TSLPR antibody (antibody, V domains shown)
VH: QVTLKESGPGILKPSQTLSLTCSFSGFSLSTSGMGVGWIRQPSGKGLEWLAHIWWDDDKYYNPSLKSQLTISKDTSRNQVFLKITSVDTADTATYYCSRRPRGTMDAMDYWGQGTSVTVSS
VL: DIVMTQAASSLSASLGDRVTISCRASQDISKYLNWYQQKPDGTVKLLIYYTSRLHSGVPSRFSGSGSGTDYSLTIRNLEQEDIATYFCQQVYTLPWTFGGGTKLEIK
- binding [1]: binds
- binding [2]: binds
